{"source": "PubChem BioAssay AID743121, NCATS | 2013", "screen": "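Knock-downs that sensitise breast cancer cells to camptothecin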 (primary screen)", "cell system": "MDA-MB-231 cells, a human breast cancer line", "knock-down reagent": "single siRNA against human genes, 20 nM siRNA (0.8 pmol per well)", "timing": "120 h (drug added 48 h after transfection, read 72 h later)", "treatment": "camptothecin 20 nM (about EC30) for 72 h; vehicle 0.1% DMSO in parallel plates", "read-out": "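Cell viability by ATP luminescence (CellTiter-Glo) as % of non-targeting siRNA wells, and the log2 ratio of viability without drug over viability with camptothecin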", "reading the numbers": "log2 vehicle/camptothecin viability: higher = stronger sensitisation to camptothecin; viability with camptothecin: higher = more viable cells", "units": "viability with camptothecin in % of control", "hit rule": "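Active genes have an RSA gene-level p-value below 0.001, computed from the ratios of their separate siRNAs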", "note": "Shown is one part, drawn at random, of about 26,000 deposited reagents. Of all reagents, 167 (0.63%) got an active call. 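Calls are per gene from RSA p-values that are not deposited; an individual active-marked siRNA can sensitise only weakly.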 Unmarked entries are inactive. The numbers tell different reagents against one gene apart. Not all columns of the deposit are shown."}
The first 2 entries as a preview:
{"Gene":"NEU1 (GeneID 4758)","reagent":1,"log2 vehicle/camptothecin viability":-0.12,"viability with camptothecin":98}
{"Gene":"NEU1 (GeneID 4758)","reagent":2,"log2 vehicle/camptothecin viability":1.34,"viability with camptothecin":24.1}

The listing, repeating the preview:
{"Gene":"NEU1 (GeneID 4758)","reagent":1,"log2 vehicle/camptothecin viability":-0.12,"viability with camptothecin":98}
{"Gene":"NEU1 (GeneID 4758)","reagent":2,"log2 vehicle/camptothecin viability":1.34,"viability with camptothecin":24.1}
{"Gene":"NEU1 (GeneID 4758)","reagent":3,"log2 vehicle/camptothecin viability":0.148,"viability with camptothecin":16.4}
{"Gene":"NEU1 (GeneID 4758)","reagent":4,"log2 vehicle/camptothecin viability":-0.287,"viability with camptothecin":97.2}
{"Gene":"KCND3 (GeneID 3752)","reagent":1,"log2 vehicle/camptothecin viability":0.0906,"viability with camptothecin":75.4}
{"Gene":"KCND3 (GeneID 3752)","reagent":2,"log2 vehicle/camptothecin viability":-0.606,"viability with camptothecin":85.9}
{"Gene":"KCND3 (GeneID 3752)","reagent":3,"log2 vehicle/camptothecin viability":-0.168,"viability with camptothecin":50.9}
{"Gene":"KCND3 (GeneID 3752)","reagent":4,"log2 vehicle/camptothecin viability":-0.171,"viability with camptothecin":96.1}
{"Gene":"SSBP1 (GeneID 6742)","reagent":1,"log2 vehicle/camptothecin viability":-0.301,"viability with camptothecin":92.1}
{"Gene":"SSBP1 (GeneID 6742)","reagent":2,"log2 vehicle/camptothecin viability":-0.0233,"viability with camptothecin":75}
{"Gene":"SSBP1 (GeneID 6742)","reagent":3,"log2 vehicle/camptothecin viability":-0.312,"viability with camptothecin":119}
{"Gene":"SSBP1 (GeneID 6742)","reagent":4,"log2 vehicle/camptothecin viability":-0.0422,"viability with camptothecin":92.1}
{"Gene":"SORCS1 (GeneID 114815)","reagent":1,"log2 vehicle/camptothecin viability":0.0733,"viability with camptothecin":53.6}
{"Gene":"SORCS1 (GeneID 114815)","reagent":2,"log2 vehicle/camptothecin viability":-0.208,"viability with camptothecin":48.1}
{"Gene":"SORCS1 (GeneID 114815)","reagent":3,"log2 vehicle/camptothecin viability":0.0675,"viability with camptothecin":60.8}
{"Gene":"IL36R (GeneID 8808)","reagent":1,"log2 vehicle/camptothecin viability":-0.186,"viability with camptothecin":109}
{"Gene":"IL36R (GeneID 8808)","reagent":2,"log2 vehicle/camptothecin viability":-0.261,"viability with camptothecin":136}
{"Gene":"IL36R (GeneID 8808)","reagent":3,"log2 vehicle/camptothecin viability":-0.0892,"viability with camptothecin":118}
{"Gene":"IL36R (GeneID 8808)","reagent":4,"log2 vehicle/camptothecin viability":-0.419,"viability with camptothecin":99.5}
{"Gene":"GPC4 (GeneID 2239)","reagent":1,"log2 vehicle/camptothecin viability":0.209,"viability with camptothecin":88.1}
{"Gene":"GPC4 (GeneID 2239)","reagent":2,"log2 vehicle/camptothecin viability":0.119,"viability with camptothecin":83.6}
{"Gene":"GPC4 (GeneID 2239)","reagent":3,"log2 vehicle/camptothecin viability":-0.264,"viability with camptothecin":50.3}
{"Gene":"GPC4 (GeneID 2239)","reagent":4,"log2 vehicle/camptothecin viability":-0.184,"viability with camptothecin":113}
{"Gene":"PGK1 (GeneID 5230)","reagent":1,"log2 vehicle/camptothecin viability":0.161,"viability with camptothecin":61.9}
{"Gene":"PGK1 (GeneID 5230)","reagent":2,"log2 vehicle/camptothecin viability":0.26,"viability with camptothecin":35.5}
{"Gene":"PGK1 (GeneID 5230)","reagent":3,"log2 vehicle/camptothecin viability":-1.07,"viability with camptothecin":14.7}
{"Gene":"PGK1 (GeneID 5230)","reagent":4,"log2 vehicle/camptothecin viability":-0.168,"viability with camptothecin":88.9}
{"Gene":"HDAC11 (GeneID 79885)","reagent":1,"log2 vehicle/camptothecin viability":-0.0472,"viability with camptothecin":95.7}
{"Gene":"HDAC11 (GeneID 79885)","reagent":2,"log2 vehicle/camptothecin viability":-0.479,"viability with camptothecin":103}
{"Gene":"HDAC11 (GeneID 79885)","reagent":3,"log2 vehicle/camptothecin viability":-0.0791,"viability with camptothecin":86.7}
{"Gene":"HDAC11 (GeneID 79885)","reagent":4,"log2 vehicle/camptothecin viability":0.435,"viability with camptothecin":13}
{"Gene":"IFT57 (GeneID 55081)","reagent":1,"log2 vehicle/camptothecin viability":0.259,"viability with camptothecin":63.6}
{"Gene":"IFT57 (GeneID 55081)","reagent":2,"log2 vehicle/camptothecin viability":-0.554,"viability with camptothecin":102}
{"Gene":"IFT57 (GeneID 55081)","reagent":3,"log2 vehicle/camptothecin viability":-0.0872,"viability with camptothecin":95.6}
{"Gene":"IFT57 (GeneID 55081)","reagent":4,"log2 vehicle/camptothecin viability":-0.0897,"viability with camptothecin":76.6}
